Laboratory results as given in patent publication US8673951B2, “Isoxazoline-substituted benzamide compound and pesticide” (priority 2005, dated 2014).
Some of these results come from one statement about several compounds together. At least one compound was matched to its structure with a doubt left.

Tested on: cabbage moth (Plutella xylostella)
Test: Insecticidal test against cabbage moth (Test Example 1)
Type: in vivo
Settings: chemical solution 10 ppm (**); cabbage leaf dip; second instar larva; after 6 days; 25° C.

Which “insecticidal rate (rate of dead insects)” value does the source give for COCN(C(=O)OC)C(=O)c1ccc(C2=NOC(c3cc(Cl)cc(Br)c3)(C(F)(F)F)C2)cc1C (racemic) [3-080] here?
Its value is at least 80%.

Which “insecticidal rate (rate of dead insects)” value does the source give for COC(=O)NC(=O)c1ccc(C2=NOC(c3cc(Cl)cc(Cl)c3)(C(F)(F)Cl)C2)cc1Cl (centres unmarked) [2-020] here?
Its value is at least 80%.

Which “insecticidal rate (rate of dead insects)” value does the source give for COC(=O)NC(=O)c1ccc(C2=NOC(c3cc(Cl)cc(Br)c3)(C(F)(F)F)C2)cc1C (centres unmarked) [2-021] here?
The value was at least 80%.

With COC(=O)NC(=O)c1ccc(C2=NOC(c3cc(Br)cc(Br)c3)(C(F)(F)F)C2)cc1C (centres unmarked) [2-022] as the molecule, how does the “insecticidal rate (rate of dead insects)” value read?
Its value is at least 80%.

With CON=CNC(=O)c1ccc(C2=NOC(c3cc(Cl)cc(Cl)c3)(C(F)(F)Cl)C2)cc1Cl (centres unmarked) [6-028] as the molecule, how does the “insecticidal rate (rate of dead insects)” value read?
Its value is at least 80%.

How did the “insecticidal rate (rate of dead insects)” value turn out when CON=CNC(=O)c1ccc(C2=NOC(c3cc(Cl)cc(Br)c3)(C(F)(F)F)C2)cc1C (centres unmarked) [6-029] was run?
The value was at least 80%.

With CON=CNC(=O)c1ccc(C2=NOC(c3cc(Br)cc(Br)c3)(C(F)(F)F)C2)cc1C (centres unmarked) [6-035] as the molecule, how does the “insecticidal rate (rate of dead insects)” value read?
The value was at least 80%.

Which “insecticidal rate (rate of dead insects)” value does the source give for CCON=CNC(=O)c1ccc(C2=NOC(c3cc(Br)cc(Br)c3)(C(F)(F)F)C2)cc1C (centres unmarked) [6-036] here?
The value was at least 80%.
